Source: PubChem BioAssay AID1259308 (NCATS, 2017)
The deposit covers about 59,000 reagents; this is an unselected part. About 1,510 of all reagents (2.6%) were called active. 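Calls use total luciferase alone and ignore viability, so some active siRNAs may act by altering cell number.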 Entries without a mark were called inactive.

Test: 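Genes whose loss raises luciferase production in HEK293 cells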 (primary screen)
Cell system: human HEK293 embryonic kidney cells stably expressing firefly luciferase (HEK-CMV-Luc2-Hygro)
Reagents: single siRNA against human genes, 0.8 pmol siRNA per well
Time to read-out: 72 h
Measured: 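Reporter luminescence and viable-cell signal on separate replicate plates, given as percent of non-targeting control and median/MAD z-scores, plus per-cell luciferase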
Scale: total luciferase, z-score and total luciferase, % of control: higher = more reporter protein produced; luciferase per cell, z-score: higher = more reporter output per viable cell; viable cells, % of control: higher = more viable cells
Hit rule: 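An siRNA counts as active if its total luciferase robust z-score exceeds 3; genes with two or more such siRNAs out of three were retested with fresh siRNAs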
Meaning of the calls: active = raised luciferase; inactive = no rise

gene symbol,PubChem SID,"total luciferase, z-score","total luciferase, % of control","luciferase per cell, z-score","viable cells, % of control"
EEF2KMT (eukaryotic elongation factor 2 lysine methyltransferase),SID160732641,0.641,94.6,0.161,101
EEF2KMT (eukaryotic elongation factor 2 lysine methyltransferase),SID160760635,5.54 (active),192,3.77,79.5
EEF2KMT (eukaryotic elongation factor 2 lysine methyltransferase),SID160760636,-0.38,74.3,-0.916,106
FCER2 (Fc epsilon receptor II),SID160764355,1.52,112,3.82,45.8
FCER2 (Fc epsilon receptor II),SID160764366,1.93,120,1.83,83
FCER2 (Fc epsilon receptor II),SID160764375,-0.0177,81.5,0.552,78.8
SMARCC1 (SWI/SNF related BAF chromatin remodeling complex subunit C1),SID160717040,-0.358,74.8,-0.283,90
SMARCC1 (SWI/SNF related BAF chromatin remodeling complex subunit C1),SID160717041,-0.441,73.1,-0.0532,82.9
SMARCC1 (SWI/SNF related BAF chromatin remodeling complex subunit C1),SID160717042,-1.1,60,-1.02,87.5
ITGAX (integrin subunit alpha X),SID160775993,3.15 (active),144,2.11,92.6
ITGAX (integrin subunit alpha X),SID160775994,-1.12,59.7,-0.763,81.5
ITGAX (integrin subunit alpha X),SID160775995,-0.306,75.8,-0.654,101
SNRPE (small nuclear ribonucleoprotein polypeptide E),SID160717136,1.25,107,0.694,99.3
SNRPE (small nuclear ribonucleoprotein polypeptide E),SID160717137,3.22 (active),146,3.53,64.4
SNRPE (small nuclear ribonucleoprotein polypeptide E),SID160717138,4.49 (active),171,4.74,54.9

Records above called active, once more:
gene symbol,PubChem SID,"total luciferase, z-score","total luciferase, % of control","luciferase per cell, z-score","viable cells, % of control"
EEF2KMT (eukaryotic elongation factor 2 lysine methyltransferase),SID160760635,5.54 (active),192,3.77,79.5
ITGAX (integrin subunit alpha X),SID160775993,3.15 (active),144,2.11,92.6
SNRPE (small nuclear ribonucleoprotein polypeptide E),SID160717137,3.22 (active),146,3.53,64.4
SNRPE (small nuclear ribonucleoprotein polypeptide E),SID160717138,4.49 (active),171,4.74,54.9

Further results follow:
gene symbol,PubChem SID,"total luciferase, z-score","total luciferase, % of control","luciferase per cell, z-score","viable cells, % of control"
"IRAG1 (inositol 1,4,5-triphosphate receptor associated 1)",SID160728204,-0.571,70.5,-0.479,89.4
"IRAG1 (inositol 1,4,5-triphosphate receptor associated 1)",SID160728205,-1.97,42.6,-2.02,81
"IRAG1 (inositol 1,4,5-triphosphate receptor associated 1)",SID160728207,3.03 (active),142,1.19,116
FAT1 (FAT atypical cadherin 1),SID160764021,-1.6,50.2,-1.41,81.3
FAT1 (FAT atypical cadherin 1),SID160764032,0.0312,82.5,-0.00683,92.4
FAT1 (FAT atypical cadherin 1),SID160764039,0.117,84.2,-0.066,95.8
"TNNT3 (troponin T3, fast skeletal type)",SID160718225,1.3,108,1.16,88.7
"TNNT3 (troponin T3, fast skeletal type)",SID160718226,0.22,86.3,0.0944,94
"TNNT3 (troponin T3, fast skeletal type)",SID160718227,0.551,92.8,-0.0994,106
"METTL13 (methyltransferase 13, eEF1A N-terminus and K55)",SID160741074,-0.429,73.4,-0.789,101
"METTL13 (methyltransferase 13, eEF1A N-terminus and K55)",SID160741075,-1.54,51.4,-1.74,90.8
"METTL13 (methyltransferase 13, eEF1A N-terminus and K55)",SID160741076,0.0384,82.6,-0.397,103
"THA1P (threonine aldolase 1, pseudogene)",SID160725277,-2.85,25.2,-0.863,35.4
"THA1P (threonine aldolase 1, pseudogene)",SID160731186,0.479,91.4,0.315,94
"THA1P (threonine aldolase 1, pseudogene)",SID160766575,-1.15,59.1,-1.17,89.9
PPEF1 (protein phosphatase with EF-hand domain 1),SID160714727,0.647,94.7,1.53,70.9
PPEF1 (protein phosphatase with EF-hand domain 1),SID160714728,0.469,91.2,0.0993,99.3
PPEF1 (protein phosphatase with EF-hand domain 1),SID160714729,-0.513,71.7,0.576,68.8
KCTD14 (potassium channel tetramerization domain containing 14),SID160731764,-0.342,75.1,-0.277,90.2
KCTD14 (potassium channel tetramerization domain containing 14),SID160748367,0.069,83.3,1.42,64
KCTD14 (potassium channel tetramerization domain containing 14),SID160748368,-0.948,63,-1.04,92.5
AP1G1 (adaptor related protein complex 1 subunit gamma 1),SID160715265,-1.1,60,-0.0152,67.3
AP1G1 (adaptor related protein complex 1 subunit gamma 1),SID160715276,0.0753,83.4,-0.29,101
AP1G1 (adaptor related protein complex 1 subunit gamma 1),SID160715286,1.52,112,1.15,92.6
